These results are taken from US20190016812A1.

The chains behind the UniProt entries cited, without tags or fusion partners. Where a name states a change or a piece, a line headed by the entry shows the natural chain unless it says otherwise.
UniProt P41273: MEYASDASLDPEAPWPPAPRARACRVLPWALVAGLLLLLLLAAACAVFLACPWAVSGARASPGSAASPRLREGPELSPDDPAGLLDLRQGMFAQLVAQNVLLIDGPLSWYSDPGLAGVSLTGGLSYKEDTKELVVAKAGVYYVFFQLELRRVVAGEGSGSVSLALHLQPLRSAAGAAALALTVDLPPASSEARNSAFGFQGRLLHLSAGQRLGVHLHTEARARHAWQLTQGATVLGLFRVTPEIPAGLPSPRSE

In the assay the target is hTNFSF9-His (monomeric human TNFSF9 extracellular domain with 9x-Histidine tag) (human) (UniProt P41273). In words: MSD sandwich ELISA, sulfo-tagged SC113.61 at 0.5 ug/mL as detector; standard curve with purified recombinant hTNFSF9-His. On the technique in general: In an ELISA, binding on a coated surface is turned into a signal by an enzyme label.

Results are given in words; binding and its absence hold for the method and conditions named. Some entries that bind do so weakly or less than the wild type.

B1: SC113.61 (antibody, V domains shown)
VH: EVQLVESGGDLVKPGGSLKLSCAASGFTFSNYGMSWVRQTPDKRLEWVATISNGGISTYYPDSVKGRFTISRDNAKNTLYLQMNSLKSEDTAMYYCVRPGRGYFDYWGQGTTLTVSS
VL: DIVMTQAAPSVPVTPGESVSISCRSNKSLLHSDGNTYLYWFLQRPGQSPQLLIYRMSNLASGVPDRFSGSGSGTAFTLRISRVEAEDVGVYYCMQHLEYPWTFGGGTKLEIK
modifications: MSD SULFO-TAG NHS Ester label on amines (sites not given)
On to B1, for which the binding entry is listed as “binds”.
